{
  "source": "patent US12060400B2",
  "about": "“Peptides for use in immunotherapy against cancers” (Immatics Biotechnologies GmbH, priority 2018, dated 2024)",
  "key": {"[1]": {"test_system": "HLA molecules of primary tumor and normal tissue samples (cancer entities)", "experiment": "Identification and label-free LC-MS quantitation of HLA-presented tumor-associated peptides on tissue samples", "design": "species or system human", "conditions": "cancer entities on whose tumor tissue samples the HLA-presented peptide was found (LC-MS); abbreviations in the footnotes of Table 8a"}, "[2]": {"test_system": "source gene exon mRNA in tumor and normal tissue samples", "experiment": "Expression profiling (RNAseq) of genes encoding the peptides, tumor versus normal tissues", "design": "species or system human", "conditions": "tumor types in which the peptide's exon is over-expressed (+) vs panel of normal tissues; RNAseq; Table 9a"}},
  "note": "For part of these data: For expression read-outs the peptide stands for its source gene, whose mRNA was measured; the gene is not named for every peptide.",
  "data": [
    {"substance": "374: peptide found in CCR4 (gene looked up) (MIFAVVVLF; listed as Homo sapiens) [compound 374]", "values": [
      {"measurement": "Peptide Presentation on cancer entities", "setting": "[1]", "result": "GBC, GBM, GC, MEL, NHL, NSCLCadeno, OC, OSCAR, PRCA"},
      {"measurement": "Exon Expression in tumor types vs normal tissue panel: over-expressed (+)", "setting": "[2]", "result": "NHL"}
    ]},
    {"substance": "386: peptide found in AR (gene looked up) (YQSRDYYNF; listed as Homo sapiens) [compound 386]", "values": [
      {"measurement": "Peptide Presentation on cancer entities", "setting": "[1]", "result": "CRC, GBC, GBM, GC, HCC, HNSCC, NSCLCadeno, NSCLCsquam, OC, PRCA, UBC, UEC"},
      {"measurement": "Exon Expression in tumor types vs normal tissue panel: over-expressed (+)", "setting": "[2]", "result": "BRCA, HCC, PRCA"}
    ]},
    {"substance": "387: peptide found in NUP155 (gene looked up) (THAGVRLYF; listed as Homo sapiens) [compound 387]", "values": [
      {"measurement": "Peptide Presentation on cancer entities", "setting": "[1]", "result": "CRC, GBC, GC, HCC, NHL, NSCLCadeno, NSCLCsquam, OC, OSCAR, PRCA, UEC"},
      {"measurement": "Exon Expression in tumor types vs normal tissue panel: over-expressed (+)", "setting": "[2]", "result": "NSCLCother, NSCLCsquam, SCLC"}
    ]}
  ]
}
